Assay [1] addresses T1, endogenous TRIM69 (human (endogenous in SW-1990)) (UniProt Q86WT6).
T1 sequence: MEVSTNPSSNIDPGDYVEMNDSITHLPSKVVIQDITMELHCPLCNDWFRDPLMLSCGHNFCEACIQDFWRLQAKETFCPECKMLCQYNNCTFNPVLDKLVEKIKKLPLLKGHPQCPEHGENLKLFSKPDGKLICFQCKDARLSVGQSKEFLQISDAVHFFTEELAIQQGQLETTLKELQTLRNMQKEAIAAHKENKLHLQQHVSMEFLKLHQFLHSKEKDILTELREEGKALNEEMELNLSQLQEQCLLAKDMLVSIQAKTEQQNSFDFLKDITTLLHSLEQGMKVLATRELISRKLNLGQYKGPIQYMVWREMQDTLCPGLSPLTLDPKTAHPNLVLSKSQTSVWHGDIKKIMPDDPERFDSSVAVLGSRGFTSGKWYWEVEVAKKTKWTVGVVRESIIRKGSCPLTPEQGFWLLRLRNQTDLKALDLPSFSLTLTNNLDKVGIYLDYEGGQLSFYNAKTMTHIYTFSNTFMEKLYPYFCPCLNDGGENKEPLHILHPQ
Briefly: co-IP; endogenous proteins, cytoplasmic extractions of SW-1990 cells; TRIM69 precipitated, blotted with antibodies against EYA4 and P53.

Assay [2] deals with T2, GFP-tagged wild-type EYA4 (Eyes absent homologue 4) (human) (UniProt O95677).
T2 sequence: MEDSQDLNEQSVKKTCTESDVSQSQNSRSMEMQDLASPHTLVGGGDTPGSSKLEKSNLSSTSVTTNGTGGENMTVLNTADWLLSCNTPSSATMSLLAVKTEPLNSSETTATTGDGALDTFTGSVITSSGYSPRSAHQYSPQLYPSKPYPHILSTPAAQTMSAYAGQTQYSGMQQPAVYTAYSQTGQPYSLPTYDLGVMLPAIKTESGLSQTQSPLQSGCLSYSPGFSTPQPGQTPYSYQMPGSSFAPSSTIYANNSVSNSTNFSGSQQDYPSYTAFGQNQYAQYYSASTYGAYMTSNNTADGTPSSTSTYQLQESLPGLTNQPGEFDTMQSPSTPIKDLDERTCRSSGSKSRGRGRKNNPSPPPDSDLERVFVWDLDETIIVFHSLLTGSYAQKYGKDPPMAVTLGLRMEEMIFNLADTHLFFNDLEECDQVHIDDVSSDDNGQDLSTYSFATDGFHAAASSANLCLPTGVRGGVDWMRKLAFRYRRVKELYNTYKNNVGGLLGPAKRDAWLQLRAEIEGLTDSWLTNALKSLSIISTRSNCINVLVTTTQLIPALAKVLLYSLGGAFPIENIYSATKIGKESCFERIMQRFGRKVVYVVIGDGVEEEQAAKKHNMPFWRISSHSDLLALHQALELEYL
As to the kind of experiment: co-IP; SW-1990 transfectants coexpressing GFP-EYA4 plus Flag-TRIM69; lysed in RIPA buffer, protein A/G-agarose beads and primary antibody at 4 °C overnight, washed with 50 mmol/L Tris-HCl pH 7.6, 300 mmol/L NaCl, 1 mmol/L EDTA, 0.5% NP-40, 10% glycerol; both orientations (GFP and Flag).

Results are given in words; binding and its absence hold for the method and conditions named. Binding seen in cells or lysates may run through a third protein. Some results given as binding are weak or reduced against the parent protein; the word gives no strength. For some assays here: Tags and fused reporters may be left off the sequences shown.

Take “endogenous P53 (from UniProt P04637 1-393)”: the binding result in assay [1] was “binds”.

B1: Flag-tagged wild-type full-length TRIM69 (tripartite motif containing 69) (protein, UniProt Q86WT6 1-500)
chain: MEVSTNPSSNIDPGDYVEMNDSITHLPSKVVIQDITMELHCPLCNDWFRDPLMLSCGHNFCEACIQDFWRLQAKETFCPECKMLCQYNNCTFNPVLDKLVEKIKKLPLLKGHPQCPEHGENLKLFSKPDGKLICFQCKDARLSVGQSKEFLQISDAVHFFTEELAIQQGQLETTLKELQTLRNMQKEAIAAHKENKLHLQQHVSMEFLKLHQFLHSKEKDILTELREEGKALNEEMELNLSQLQEQCLLAKDMLVSIQAKTEQQNSFDFLKDITTLLHSLEQGMKVLATRELISRKLNLGQYKGPIQYMVWREMQDTLCPGLSPLTLDPKTAHPNLVLSKSQTSVWHGDIKKIMPDDPERFDSSVAVLGSRGFTSGKWYWEVEVAKKTKWTVGVVRESIIRKGSCPLTPEQGFWLLRLRNQTDLKALDLPSFSLTLTNNLDKVGIYLDYEGGQLSFYNAKTMTHIYTFSNTFMEKLYPYFCPCLNDGGENKEPLHILHPQ
Regarding B1, the binding entry in assay [2] is recorded as “binds”.

For the origin of these results see article PMC9891873.
